Test results as given in the supplement of paper PMC6445147.
Single values of this data set are uncertain.

B1: human tRNA-Pro; a variant is named by its letters at N, in order (parent)
chain: GGCTCGTTGGTCTAGNGGTATGATTCTCGCTTAGGGTGCGAGAGGTCCCGGGTTCNNATCCCGGACGAGCCC

What was measured:
[1] = variants of: B1; experiment: tRNA Pol-III promoter activity, log2 (circRNA frequency / plasmid DNA frequency) (log2 ratio); higher = stronger promoter activity; conditions: HEK293T; construct: no Pol-II promoter ((-)CMV library)
[2] = variants of: B1; experiment: tRNA 3' processing efficiency (processed reads / all reads, maximum-likelihood estimate) (fraction); higher = more efficient 3' processing; conditions: HEK293T; construct: no Pol-II promoter ((-)CMV library)

Variant	tRNA Pol-III promoter activity (log2) [1]	tRNA 3' processing efficiency [2]
GGCTCGTTGGTCTAGCGGTATGATTCTCGCTTAGGGTGCGAGAGGTCCCGGGTTCTAGTCCCGGACGAGCCC	4.53	0.14
GGCTCGTTGGTCTAGTGGTTTGATTCTCGCTTAGGGTGCGAGAGGTCCCGGGTTCTACTCCCGGACGAGCCC	4.74	0.57
GGCTCGTTGGTCTAGGGGTGTGATTCTCGCTTAGGGTGCGAGAGGTCCCGGGTTCTAACCCCGGACGAGCCC	6.1	0.14
GGCTCGTTGGTCTAGTGGTATGATTCTCGCTTAGGGTGCGAGAGGTCCCGGGTTCTAGTCCCGGACGAGCCC	4.18	0.09
GGCTCGTTGGTCTAGTGGTATGATTCTCGCTTAGGGTGCGAGAGGTCCCGGGTTCTACTCCCGGACGAGCCC	4.04	0.4
GGCTCGTTGGTCTAGTGGTATGATTCTCGCTTAGGGTGCGAGAGGTCCCGGGTTCTATTCCCGGACGAGCCC	4.15	0.27
GGCTCGTTGGTCTAGAGGTTTGATTCTCGCTTAGGGTGCGAGAGGTCCCGGGTTCTATTCCCGGACGAGCCC	8.43	0.43
GGCTCGTTGGTCTAGTGGTATGATTCTCGCTTAGGGTGCGAGAGGTCCCGGGTTGTATTCCCGGACGAGCCC	6.26	0.7
GGCTCGTTGGTCTAGGGGTATGATTCTCGCTTAGGGTGCGAGAGGTCCCGGGTTCTAGGCCCGGACGAGCCC	4.58	0.42
GGCTCGTTGGTCTAGGGGTATGATTCTCGCTTAGGGTGCGAGAGGTCCCGGGTTCTAGCCCCGGACGAGCCC	4.62	0.41
GGCTCGTTGGTCTAGGGGTATGATTCTCGCTTAGGGTGCGAGAGGTCCCGGGTTCTAGACCCGGACGAGCCC	3.29	0.29
GGCTCGTTGGTCTAGCGGTATGATTCTCGCTTAGGGTGCGAGAGGTCCCGGGTTATAATCCCGGACGAGCCC	2.93	0.33
GGCTCGTTGGTCTAGCGGTATGATTCTCGCTTAGGGTGCGAGAGGTCCCGGGTTGTAATCCCGGACGAGCCC	3.26	0.4
GGCTCGTTGGTCTAGGGGTTTGATTCTCGCTTAGGGTGCGAGAGGTCCCGGGGTCTAATCCCGGACGAGCCC	3.57	0.14
GGCTCGTTGGTCTAGGGGTTTGATTCTCGCTTAGGGTGCGAGAGGTCCCGGGTTCTAACCCCGGACGAGCCC	4.42	0.31
GGCTCGTTGGTCTAGGGGTATGATTCTCGCTTTGGGTGCGAGAGGTCCCGGGTTCTAATCCCGGACGAGCCC	5.74	0.57
GGCTCGTTGGTCTAGGGGTATGATTCTCGCTTAGGGTGCGAGAGGTCCCGGGTTCTATACCCGGACGAGCCC	4.31	0.38
GGCTCGTTGGTCTAGGGGTATGATTCTCGCTTAGGGTGCGAGAGGTCCCGGGTTCTATCCCCGGACGAGCCC	3	0.35
GGCTCGTTGGTCTAGTGGTTTGATTCTCGCTTAGGGTGCGAGAGGTCCCGGGTTCTAATCCCGGACGAGCCC	2.64	0.2
